Reference: US4292317A, “1,4-Dihydro-quinoline-3-carboxylic acid derivatives, process for their preparation and compositions containing them” (Laboratorie Roger Bellon, priority 1977, dated 1981)
Values after ≈ are worked out from the molar mass of the structure shown.

Legend:
Strept. pyogenes A. 65 = assay: M.I.C. for germ used in experimental infection; type: cell-based; conditions: Streptococcus pyogenes, 18 h, Table 4
Experimental: (§1) After sterilisation at 120° C., the pH was 6.8.
(§2) The minimum inhibitory concentrations (M.I.C.) were determined by dilution of the test compounds in this mixture, the concentration ranging from 0.05 to 100 μg/cm^3 in a geometric progression with a factor of 2.
(§3) The inoculation of the dishes was carried out by means of a multiple inoculator with 10^-3 dilutions of 18 hour old broth cultures.
(§4) The dishes were placed in an oven at 37° C. and the readings were taken afer an incubation time of 18 hours. The M.I.C. was taken as the lowest concentration which inhibited a culture.

Escherichia coli P 5101 = assay: M.I.C. for germ used in experimental infection; type: cell-based; conditions: P5101, 18 h, Table 4, E. coli P 5101
Experimental: as §1, §2, §3, §4

[1] = tested on: Pseudomonas aeruginosa No. 12; assay: M.I.C. for germ used in experimental infection; type: cell-based; conditions: 18 h, Table 4, P. aeruginosa No. 12
Experimental: as §1, §2, §3, §4

Staph. aureus 50,774 = assay: M.I.C. for germ used in experimental infection; type: cell-based; conditions: Staphylococcus aureus, 18 h, Table 4
Experimental: as §1, §2, §3, §4

[2] = dogs
in vivo [3] = conditions: dog, plasma, po
in vivo [4] = conditions: dog, urine, po, 50 mg/kg, urine concentration (c), 50 mg/kg p.o., after 24 hours
Salm. typhi 0901 = assay: microbe, parasite or virus in culture; type: cell-based; conditions: Salmonella enterica, 18 h
Experimental: (§5) The antimicrobial activity of the compounds according to the invention has been investigated in vitro on Gram positive and Gram negative bacteria using, as the culture medium, nutrient agar (N.A.) of the following formulation: […]
as §1, §2, §3, §4
(§6) Table 2 gives the M.I.C. of the compounds of the invention containing a chlorine atom in the 6-position against 5 Gram positive bacteria (from 1 to 5) and 17 Gram negative bacteria (from 6 to 22).

Esch. coli 111 B4 = assay: M.I.C. in vitro, nutrient agar dilution; type: cell-based; conditions: Escherichia coli, 18 h, Table III
Experimental: as §5, §1, §2, §3, §4, §6

Strepto D.M. 19 = assay: M.I.C. in vitro, nutrient agar dilution; type: cell-based; conditions: 18 h, Table III
Experimental: as §5, §1, §2, §3, §4, §6

Esch. coli 54.127 O.M.S. = assay: M.I.C. in vitro, nutrient agar dilution; type: cell-based; conditions: Escherichia coli, 18 h, Table III
Experimental: as §5, §1, §2, §3, §4, §6

Sh. sonnei I.P.S. = assay: M.I.C. in vitro, nutrient agar dilution; type: cell-based; conditions: Shigella sonnei, 18 h
Experimental: as §5, §1, §2, §3, §4, §6

Ps. aeruginosa 72.345 = assay: M.I.C. in vitro, nutrient agar dilution; type: cell-based; conditions: Pseudomonas aeruginosa, 18 h; Table III; Pd. aeruginosa 72.345
Experimental: as §5, §1, §2, §3, §4, §6

Esch. coli 95 I.S.M. = assay: M.I.C. in vitro, nutrient agar dilution; type: cell-based; conditions: Escherichia coli, 18 h, Table III
Experimental: as §5, §1, §2, §3, §4, §6

Staph. 209 P = assay: M.I.C. in vitro, nutrient agar dilution; type: cell-based; conditions: 18 h, Table III
Experimental: as §5, §1, §2, §3, §4, §6

B. subtilis = assay: M.I.C. in vitro, nutrient agar dilution; type: cell-based; conditions: Bacillus subtilis, 18 h, Table III
Experimental: as §5, §1, §2, §3, §4, §6

Bord. bronchis. 4.617 = assay: M.I.C. in vitro, nutrient agar dilution; type: cell-based; conditions: 18 h, Table III
Experimental: as §5, §1, §2, §3, §4, §6

Pr. vulgaris 12-53 = assay: M.I.C. in vitro, nutrient agar dilution; type: cell-based; conditions: Proteus vulgaris, 1253, 18 h, Table III
Experimental: as §5, §1, §2, §3, §4, §6

Klebs. pneum. 10.031 = assay: M.I.C. in vitro, nutrient agar dilution; type: cell-based; conditions: 18 h, Table III
Experimental: as §5, §1, §2, §3, §4, §6

S. oranienburg 1066 = assay: M.I.C. in vitro, nutrient agar dilution; type: cell-based; conditions: Salmonella enterica, 18 h, Table III
Experimental: as §5, §1, §2, §3, §4, §6

Pr. mirabilis Nig = assay: M.I.C. in vitro, nutrient agar dilution; type: cell-based; conditions: Proteus mirabilis, 18 h, Table III
Experimental: as §5, §1, §2, §3, §4, §6

Strepto A 561 = assay: M.I.C. in vitro, nutrient agar dilution; type: cell-based; conditions: 18 h, Table III
Experimental: as §5, §1, §2, §3, §4, §6

Providentia 0223 = assay: M.I.C. in vitro, nutrient agar dilution; type: cell-based; conditions: 18 h, Table III
Experimental: as §5, §1, §2, §3, §4, §6

Pr. morganii A.236 = assay: M.I.C. in vitro, nutrient agar dilution; type: cell-based; conditions: Morganella morganii, 18 h, Table III
Experimental: as §5, §1, §2, §3, §4, §6

Staph. 9.144 = assay: M.I.C. in vitro, nutrient agar dilution; type: cell-based; conditions: 18 h, Table III
Experimental: as §5, §1, §2, §3, §4, §6

Arizona 6.211 = assay: M.I.C. in vitro, nutrient agar dilution; type: cell-based; conditions: 18 h, Table III
Experimental: as §5, §1, §2, §3, §4, §6

Serratia = assay: M.I.C. in vitro, nutrient agar dilution; type: cell-based; conditions: 18 h, Table III
Experimental: as §5, §1, §2, §3, §4, §6

Ps. aeruginosa A.22 = assay: M.I.C. in vitro, nutrient agar dilution; type: cell-based; conditions: Pseudomonas aeruginosa, 18 h, Table III
Experimental: as §5, §1, §2, §3, §4, §6

S. enteritidis Danysz = assay: M.I.C. in vitro, nutrient agar dilution; type: cell-based; conditions: Salmonella enterica, 18 h, Table III
Experimental: as §5, §1, §2, §3, §4, §6

in vivo [5] = conditions: mouse, in vivo, mice
mice = assay: in vivo; conditions: i.v. or p.o.

For CCn1cc(C(=O)O)c(=O)c2cc(F)c(N3CCN(C)CC3)cc21 [Example 20, 1-Ethyl-6-fluoro-7-(4-methylpiperazinyl)-4-oxo-1,4-dihydro-quinoline-3-carboxylic acid], the MIC (Strept. pyogenes A. 65) was 3.13 µg/mL (≈ 9.39 µM), the MIC (Escherichia coli P 5101) was 0.1 µg/mL (≈ 0.3 µM) and the MIC [1] was 1.56 µg/mL (≈ 4.68 µM). The MIC (Staph. aureus 50,774) was 0.39 µg/mL (≈ 1.17 µM), the “digestive disorder or disorder of central nervous origin” value ([2]; 50 mg/kg oral) was “did not cause any digestive disorder or any disorder of central nervous origin” and the “tolerance on oral administration” value ([2]; oral) was “very well tolerated”. For the same compound, the concentration at 0.5 h (in vivo [3]; 25 mg/kg, dog D, 25 mg/kg p.o.) was 2600 ng/mL, the concentration at 1 h (in vivo [3]; 25 mg/kg, dog D, 25 mg/kg p.o.) was 7200 ng/mL and the concentration at 2 h (in vivo [3]; 25 mg/kg, dog D, 25 mg/kg p.o.) was 7800 ng/mL. The concentration at 3 h (in vivo [3]; 25 mg/kg, dog D, 25 mg/kg p.o.) was 6500 ng/mL, the concentration at 4 h (in vivo [3]; 25 mg/kg, dog D, 25 mg/kg p.o.) was 6100 ng/mL and the concentration at 6 h (in vivo [3]; 25 mg/kg, dog D, 25 mg/kg p.o.) was 4100 ng/mL. The concentration at 8 h (in vivo [3]; 25 mg/kg, dog D, 25 mg/kg p.o.) was 2700 ng/mL, the concentration at 10 h (in vivo [3]; 25 mg/kg, dog D, 25 mg/kg p.o.) was 1600 ng/mL and the concentration at 24 h (in vivo [3]; 25 mg/kg, dog D, 25 mg/kg p.o.) was 100 ng/mL. The concentration at 0.5 h (in vivo [3]; 50 mg/kg, dog A, 50 mg/kg p.o.) was 2600 ng/mL, the concentration at 1 h (in vivo [3]; 50 mg/kg, dog A, 50 mg/kg p.o.) was 3400 ng/mL and the concentration at 2 h (in vivo [3]; 50 mg/kg, dog A, 50 mg/kg p.o.) was 7700 ng/mL. For the same compound, the concentration at 3 h (in vivo [3]; 50 mg/kg, dog A, 50 mg/kg p.o.) was 10800 ng/mL, the concentration at 4 h (in vivo [3]; 50 mg/kg, dog A, 50 mg/kg p.o.) was 9800 ng/mL and the concentration at 6 h (in vivo [3]; 50 mg/kg, dog A, 50 mg/kg p.o.) was 8400 ng/mL. The concentration at 8 h (in vivo [3]; 50 mg/kg, dog A, 50 mg/kg p.o.) was 6400 ng/mL, the concentration at 10 h (in vivo [3]; 50 mg/kg, dog A, 50 mg/kg p.o.) was 5100 ng/mL and the concentration at 24 h (in vivo [3]; 50 mg/kg, dog A, 50 mg/kg p.o.) was 2000 ng/mL. It also gave a concentration at 0.5 h (in vivo [3]; 50 mg/kg, dog B, 50 mg/kg p.o.) of 4600 ng/mL, a concentration at 1 h (in vivo [3]; 50 mg/kg, dog B, 50 mg/kg p.o.) of 19200 ng/mL and a concentration at 2 h (in vivo [3]; 50 mg/kg, dog B, 50 mg/kg p.o.) of 23400 ng/mL. It also gave a concentration at 3 h (in vivo [3]; 50 mg/kg, dog B, 50 mg/kg p.o.) of 20600 ng/mL, a concentration at 4 h (in vivo [3]; 50 mg/kg, dog B, 50 mg/kg p.o.) of 18000 ng/mL and a concentration at 6 h (in vivo [3]; 50 mg/kg, dog B, 50 mg/kg p.o.) of 13200 ng/mL. It also gave a concentration at 8 h (in vivo [3]; 50 mg/kg, dog B, 50 mg/kg p.o.) of 8800 ng/mL, a concentration at 10 h (in vivo [3]; 50 mg/kg, dog B, 50 mg/kg p.o.) of 4500 ng/mL and a concentration at 24 h (in vivo [3]; 50 mg/kg, dog B, 50 mg/kg p.o.) of 300 ng/mL. The concentration at 2 h (in vivo [3]; 50 mg/kg, dog C, 50 mg/kg p.o.) was 4400 ng/mL, the concentration at 3 h (in vivo [3]; 50 mg/kg, dog C, 50 mg/kg p.o.) was 11200 ng/mL and the concentration at 4 h (in vivo [3]; 50 mg/kg, dog C, 50 mg/kg p.o.) was 17200 ng/mL. The concentration at 6 h (in vivo [3]; 50 mg/kg, dog C, 50 mg/kg p.o.) was 16400 ng/mL, the concentration at 8 h (in vivo [3]; 50 mg/kg, dog C, 50 mg/kg p.o.) was 10400 ng/mL and the concentration at 10 h (in vivo [3]; 50 mg/kg, dog C, 50 mg/kg p.o.) was 6200 ng/mL. It also gave a concentration at 24 h (in vivo [3]; 50 mg/kg, dog C, 50 mg/kg p.o.) of 800 ng/mL, a concentration at 24 h (in vivo [4]; dog A) of 54400 ng/mL and a concentration at 24 h (in vivo [4]; dog B) of 72000 ng/mL. For the same compound, the concentration at 24 h (in vivo [4]; dog C) was 61000 ng/mL, the MIC (Salm. typhi 0901) was 0.1 µg/mL (≈ 0.3 µM) and the MIC (Esch. coli 111 B4) was 0.05 to 0.1 µg/mL (≈ 0.15 to 0.3 µM). The MIC (Strepto D.M. 19) was 0.8 to 1.6 µg/mL (≈ 2.4 to 4.8 µM), the MIC (Esch. coli 54.127 O.M.S.) was 0.1 µg/mL (≈ 0.3 µM) and the MIC (Sh. sonnei I.P.S.) was 0.01 to 0.02 µg/mL (≈ 0.03 to 0.06 µM). For the same compound, the MIC (Ps. aeruginosa 72.345) was 0.8 µg/mL (≈ 2.4 µM), the MIC (Esch. coli 95 I.S.M.) was 0.1 µg/mL (≈ 0.3 µM) and the MIC (Staph. 209 P) was 0.2 µg/mL (≈ 0.6 µM). For the same compound, the MIC (B. subtilis) was 0.05 to 0.1 µg/mL (≈ 0.15 to 0.3 µM), the MIC (Bord. bronchis. 4.617) was 0.8 to 3.1 µg/mL (≈ 2.4 to 9.3 µM) and the MIC (Pr. vulgaris 12-53) was 0.1 to 0.4 µg/mL (≈ 0.3 to 1.2 µM). For the same compound, the MIC (Klebs. pneum. 10.031) was 0.05 to 0.1 µg/mL (≈ 0.15 to 0.3 µM), the MIC (S. oranienburg 1066) was 3.1 µg/mL (≈ 9.3 µM) and the MIC (Pr. mirabilis Nig) was 0.2 to 0.4 µg/mL (≈ 0.6 to 1.2 µM). It also gave an MIC (Strepto A 561) of 0.8 to 3.1 µg/mL (≈ 2.4 to 9.3 µM), an MIC (Providentia 0223) of 0.8 to 1.6 µg/mL (≈ 2.4 to 4.8 µM) and an MIC (Pr. morganii A.236) of 0.1 to 0.4 µg/mL (≈ 0.3 to 1.2 µM). For the same compound, the MIC (Staph. 9.144) was 0.2 µg/mL (≈ 0.6 µM), the MIC (Arizona 6.211) was 0.1 to 0.2 µg/mL (≈ 0.3 to 0.6 µM) and the MIC (Serratia) was 0.8 µg/mL (≈ 2.4 µM). For the same compound, the MIC (Ps. aeruginosa A.22) was 0.8 µg/mL (≈ 2.4 µM), the MIC (S. enteritidis Danysz) was 0.1 to 0.2 µg/mL (≈ 0.3 to 0.6 µM) and the LD50 (in vivo [5]; iv) was 350 mg/kg. The LD50 (in vivo [5]; po) was greater than 2000 mg/kg and the “toxicity (in words)” value (mice) was “very low toxicity”.
